Assay results taken from article PMC6883508.
No constants are given. Whether binding was seen depends on the method and setting. Binding can be weak; no strength is given. Where a sequence is shown, tags or fusion partners need not be part of it.

Molecular target: T1, CUL3a protein from A. thaliana, Gal4 fusion for yeast two-hybrid (A. thaliana) (UniProt Q9ZVH4)
T1 sequence: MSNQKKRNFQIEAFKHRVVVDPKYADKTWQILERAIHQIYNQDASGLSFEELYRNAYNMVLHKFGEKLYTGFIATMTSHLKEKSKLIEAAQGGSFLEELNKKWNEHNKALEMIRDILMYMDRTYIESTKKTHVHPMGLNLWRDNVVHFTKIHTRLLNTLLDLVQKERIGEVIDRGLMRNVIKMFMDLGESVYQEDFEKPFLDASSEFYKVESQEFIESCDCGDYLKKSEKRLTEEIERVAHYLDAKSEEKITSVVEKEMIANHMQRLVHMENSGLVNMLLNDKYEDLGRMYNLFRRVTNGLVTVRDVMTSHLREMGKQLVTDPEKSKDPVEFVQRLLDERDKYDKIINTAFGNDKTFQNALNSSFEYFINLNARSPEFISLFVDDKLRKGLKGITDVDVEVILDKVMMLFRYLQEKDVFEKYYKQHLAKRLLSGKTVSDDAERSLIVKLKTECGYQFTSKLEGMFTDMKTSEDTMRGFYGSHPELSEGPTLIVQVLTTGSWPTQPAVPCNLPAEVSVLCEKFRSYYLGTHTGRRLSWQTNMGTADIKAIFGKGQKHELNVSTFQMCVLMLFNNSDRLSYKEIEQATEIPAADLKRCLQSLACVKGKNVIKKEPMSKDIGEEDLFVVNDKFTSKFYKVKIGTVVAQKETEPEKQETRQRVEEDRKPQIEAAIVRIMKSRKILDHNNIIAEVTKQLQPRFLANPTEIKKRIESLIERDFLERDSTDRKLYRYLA
Experiment: two-hybrid; yeast strain Hfc7; N-terminal Gal4 AD or BD fusions, both orientations; histidine prototrophy on medium lacking Leu, Trp, His with 13 mM 3-AT, and β-galactosidase assay with X-gal; six colonies each

“TaMAB2 (Triticum aestivum MATH-BTB protein 2), Gal4 fusion for yeast two-hybrid” was tested, and the binding was “binds”.
